Experimental data from PMC6297355.
These are yes or no findings as the source states them, for the method shown. In cells and extracts the contact can be indirect. Binding calls can cover weak binding; strength is not graded here. Tags and fused reporters may be left off the sequences shown.

Amino acid sequences for entries named in this document (tags omitted). A change or cut given only in a name is not applied to a line headed by its entry.
UniProt O95817: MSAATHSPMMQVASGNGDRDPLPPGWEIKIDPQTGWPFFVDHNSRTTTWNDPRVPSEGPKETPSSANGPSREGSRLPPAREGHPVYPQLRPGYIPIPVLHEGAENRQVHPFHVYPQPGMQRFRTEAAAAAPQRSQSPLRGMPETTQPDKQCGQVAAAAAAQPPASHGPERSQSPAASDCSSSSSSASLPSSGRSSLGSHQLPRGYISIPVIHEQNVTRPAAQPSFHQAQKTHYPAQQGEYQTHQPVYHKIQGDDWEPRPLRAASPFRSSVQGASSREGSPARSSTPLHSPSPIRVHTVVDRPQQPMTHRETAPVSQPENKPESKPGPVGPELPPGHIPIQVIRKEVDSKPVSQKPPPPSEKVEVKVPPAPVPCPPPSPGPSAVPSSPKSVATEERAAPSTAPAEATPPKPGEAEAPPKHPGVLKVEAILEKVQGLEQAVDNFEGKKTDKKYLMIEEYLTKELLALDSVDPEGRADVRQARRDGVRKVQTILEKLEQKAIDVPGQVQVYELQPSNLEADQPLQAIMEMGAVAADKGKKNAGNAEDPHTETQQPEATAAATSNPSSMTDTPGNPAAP

Molecular target: FLAG-BAG3^(IPV1mut, P209L) (human) (UniProt O95817)
Assay: co-IP; anti-FLAG (M2) magnetic beads on the soluble fraction of HEK293 lysates expressing FLAG-BAG3 variants and Myc-HSPB8, 0.4% NP-40 buffer, 4 °C; in Fig. 5f cells treated with 0.5 μM JG-98, 5 μM YM-01 or DMSO

binding: binds
B1: Myc-HSPB8 (protein, UniProt Q9UJY1 1-196)
chain: MADGQMPFSCHYPSRLRRDPFRDSPLSSRLLDDGFGMDPFPDDLTASWPDWALPRLSSAWPGTLRSGMVPRGPTATARFGVPAEGRTPPPFPGEPWKVCVNVHSFKPEELMVKTKDGYVEVSGKHEEKQQEGGIVSKNFTKKIQLPAEVDPVTVFASLSPEGLLIIEAPQVPPYSTFGESSFNNELPQDSQEVTCT
